This is one part of the list. Repeats are few or missing, and single values can be far off.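 Cells were imaged in 1,536-well plates, and nuclei stained with an antibody against cleaved PARP were counted against all DNA-stained nuclei to give the apoptosis fraction. Screening doses were chosen to leave most cells alive, and resting and induced cleaved-PARP levels differ strongly between cell lines.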
Test system: A101D
Assay: cleaved PARP positive nuclei fraction relative to DMSO control; melanoma cells; higher = more apoptosis
Conditions: library dose: low library concentration; 72 h

SMILES | cleaved PARP positive nuclei fraction
Cn1nnc2c(C(N)=O)ncn2c1=O [temozolomide] + COc1cc(N2CCC(N3CCN(C)CC3)CC2)ccc1Nc1ncc(Cl)c(Nc2ccccc2S(=O)(=O)C(C)C)n1 [NVP-TAE684] (first compound 2 µM, partner dose 0.08 µM) | 65.7%
O=C(CCCCCCC(=O)Nc1ccccc1)NO [vorinostat] + COc1ccc(COc2ccc(Cc3cnc(N)nc3N)cc2OC)cc1 [GW2580] (first compound 0.08 µM, partner dose 1 µM) | 95.8%
C#Cc1cccc(Nc2ncnc3cc(OCCOC)c(OCCOC)cc23)c1 [erlotinib] + Oc1cc(-c2nc(-c3ccccc3)[nH]c2-c2ccncc2)ccc1Cl [L779450] (first compound 0.8 µM, partner dose 0.2 µM) | 119%
C#Cc1cccc(Nc2ncnc3cc(OCCOC)c(OCCOC)cc23)c1 [erlotinib] + N#Cc1c(O)c2c(-c3ccc(-c4ccccc4O)cc3)csc2[nH]c1=O [A769662] (first compound 0.8 µM, partner dose 2 µM) | 174%
COCC[n+]1c2c(n(Cc3cnccn3)c1C)C(=O)c1ccccc1C2=O + COc1ccc(-c2ccc3c(N4CCOCC4)nc(N4C[C@@H](C)O[C@@H](C)C4)nc3n2)cc1CO [KU0063794] (first compound 0.0004 µM, partner dose 0.02 µM) | 79.3%
COc1cc(Nc2ncc(F)c(Nc3ccc4c(n3)NC(=O)C(C)(C)O4)n2)cc(OC)c1OC [Tamatinib] + O=C1NC(=O)/C(=C/c2ccc(-c3ccc(F)cc3O)o2)S1 [AS252424] (first compound 0.4 µM, partner dose 1 µM) | 191%
OCCn1cc(-c2cnc3nnn(Cc4ccc5ncccc5c4)c3n2)cn1 + Cc1cc([N+](=O)[O-])ccc1NS(=O)(=O)c1cc(Cl)ccc1Cl [FH535] (first compound 1 µM, partner dose 1 µM) | 237%
Nc1cccc2c1CN(C1CCC(=O)NC1=O)C2=O (centres undefined) [lenalidomide] + CCN(CC)CCCCNc1ncc2cc(-c3cc(OC)cc(OC)c3)c(NC(=O)NC(C)(C)C)nc2n1 [PD173074] (first compound 1 µM, partner dose 0.1 µM) | 189%
C[C@@H]1CCN(C(=O)CC#N)C[C@@H]1N(C)c1ncnc2[nH]ccc12 + O=C(O)C(=O)Nc1sc2c(c1C(=O)O)CCNC2 [TCS401] (first compound 1 µM, partner dose 1.66667 µM) | 61.4%
OCCn1cc(-c2cnc3nnn(Cc4ccc5ncccc5c4)c3n2)cn1 + COc1ccc2c(c1)CCC1C2CCC2(C)C(NCCCCCCN3C(=O)C=CC3=O)CCC12 [U73122] (first compound 1 µM, partner dose 0.4 µM) | 70%
Cc1cc(N2CCOCC2)cc2[nH]c(-c3c(NC[C@@H](O)c4cccc(Cl)c4)cc[nH]c3=O)nc12 + O=C(Nc1ccccc1)c1cc([N+](=O)[O-])ccc1Cl [GW9662] (first compound 0.2 µM, partner dose 2 µM) | 79%
Nc1cccc2c1CN(C1CCC(=O)NC1=O)C2=O (centres undefined) [lenalidomide] + O=C(Nc1ccccc1)c1cc([N+](=O)[O-])ccc1Cl [GW9662] (first compound 1 µM, partner dose 2 µM) | 64.1%
CC(C)(C)c1cnc(CSc2cnc(NC(=O)C3CCNCC3)s2)o1 + Oc1cc(-c2nc(-c3ccccc3)[nH]c2-c2ccncc2)ccc1Cl [L779450] (first compound 0.01 µM, partner dose 0.2 µM) | 64.1%
Cc1nc(Nc2ncc(C(=O)Nc3c(C)cccc3Cl)s2)cc(N2CCN(CCO)CC2)n1 [dasatanib] + COC(=O)c1sccc1S(=O)(=O)Nc1ccc(Nc2ccccc2)cc1OC [GSK0660] (first compound 0.004 µM, partner dose 1 µM) | 141%
C#Cc1cccc(Nc2ncnc3cc(OCCOC)c(OCCOC)cc23)c1 [erlotinib] + O=C(O)C(=O)Nc1sc2c(c1C(=O)O)CCNC2 [TCS401] (first compound 0.8 µM, partner dose 1.66667 µM) | 67.3%
Cn1c(Nc2ccc(C(F)(F)F)cc2)nc2cc(Oc3ccnc(-c4ncc(C(F)(F)F)[nH]4)c3)ccc21 + CCCCCCCCCCCC1=C(O)C(=O)C=C(O)C1=O [Embelin] (first compound 0.08 µM, partner dose 1.2 µM) | 92%
Cn1cncc1[C@@](N)(c1ccc(Cl)cc1)c1ccc2c(c1)c(-c1cccc(Cl)c1)cc(=O)n2C [tipifarnib] + COc1cc2ncnc(Nc3ccc(Oc4ccccc4)cc3)c2cc1OC [SrcI1] (first compound 0.01 µM, partner dose 2 µM) | 168%
C#Cc1cccc(Nc2ncnc3cc(OCCOC)c(OCCOC)cc23)c1 [erlotinib] + COc1cc2ncnc(Nc3ccc(Oc4ccccc4)cc3)c2cc1OC [SrcI1] (first compound 0.8 µM, partner dose 2 µM) | 189%
Nc1cccc2c1CN(C1CCC(=O)NC1=O)C2=O (centres undefined) [lenalidomide] + Cn1cc(/C=C2\C(=O)Nc3cccnc32)c2ccccc21 [GW441756] (first compound 1 µM, partner dose 0.4 µM) | 119%
Cc1nc(Nc2ncc(C(=O)Nc3c(C)cccc3Cl)s2)cc(N2CCN(CCO)CC2)n1 [dasatanib] + c1cc(-c2cnn3cc(-c4ccc(OCCN5CCCCC5)cc4)cnc23)ccn1 [Dorsomorphin] (first compound 0.004 µM, partner dose 0.4 µM) | 86%
Cn1cncc1[C@@](N)(c1ccc(Cl)cc1)c1ccc2c(c1)c(-c1cccc(Cl)c1)cc(=O)n2C [tipifarnib] + O=C(O)C(=O)Nc1sc2c(c1C(=O)O)CCNC2 [TCS401] (first compound 0.01 µM, partner dose 1.66667 µM) | 42.2%
Cn1c(Nc2ccc(C(F)(F)F)cc2)nc2cc(Oc3ccnc(-c4ncc(C(F)(F)F)[nH]4)c3)ccc21 + O=C(Nc1ccccc1)c1cc([N+](=O)[O-])ccc1Cl [GW9662] (first compound 0.08 µM, partner dose 2 µM) | 231%
Cn1cncc1[C@@](N)(c1ccc(Cl)cc1)c1ccc2c(c1)c(-c1cccc(Cl)c1)cc(=O)n2C [tipifarnib] + Oc1nc(-c2ccc(C(F)(F)F)cc2)nc2c1CSCC2 [XAV939] (first compound 0.01 µM, partner dose 2 µM) | 124%
Cn1nnc2c(C(N)=O)ncn2c1=O [temozolomide] + COc1ccc2c(c1)CCC1C2CCC2(C)C(NCCCCCCN3C(=O)C=CC3=O)CCC12 [U73122] (first compound 2 µM, partner dose 0.4 µM) | 106%

A portion from further up:
SMILES | cleaved PARP positive nuclei fraction
Cc1nc(Nc2ncc(C(=O)Nc3c(C)cccc3Cl)s2)cc(N2CCN(CCO)CC2)n1 [dasatanib] + COC(=O)c1sccc1S(=O)(=O)Nc1ccc(Nc2ccccc2)cc1OC [GSK0660] (first compound 0.004 µM, partner dose 1 µM) | 141%
C#Cc1cccc(Nc2ncnc3cc(OCCOC)c(OCCOC)cc23)c1 [erlotinib] + O=C(O)C(=O)Nc1sc2c(c1C(=O)O)CCNC2 [TCS401] (first compound 0.8 µM, partner dose 1.66667 µM) | 67.3%

— the supplement of paper PMC4604168 (melanoma cell lines)
